Assay results as given in PMC10618058.
These are yes or no findings as the source states them, for the method shown. In cells and extracts the contact can be indirect. Some binding calls cover weakened binding; strength is not graded here. Tags and fused reporters may be left off the sequences shown.

Target: T1, Nrg1-Myc13 (S. cerevisiae) (UniProt Q03125)
T1 sequence: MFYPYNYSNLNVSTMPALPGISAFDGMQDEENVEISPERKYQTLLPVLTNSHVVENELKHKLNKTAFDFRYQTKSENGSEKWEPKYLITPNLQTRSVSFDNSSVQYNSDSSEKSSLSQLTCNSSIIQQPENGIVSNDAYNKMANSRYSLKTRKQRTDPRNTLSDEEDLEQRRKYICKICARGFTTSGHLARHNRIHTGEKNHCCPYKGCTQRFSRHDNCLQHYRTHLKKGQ
Test: co-IP; extracts of the double-tagged RTG3-TAP NRG1-Myc13 strain (2000 or 4000 µg protein) precipitated with anti-Myc13 antibody 9E11 on protein A/G agarose, 2 h at 4°C, five washes (HEPES 50 mM, NaOAc 200 mM, NP-40 0.25%); Western blot with anti-TAP; cells grown on MM with glucose or ethanol and with GABA or proline, with or without alanine (1-7 mM)

B1: Rtg3-TAP (protein, UniProt P38165 1-486)
chain: MMNNNESEAENQRLLDELMNQTKVLQETLDFSLVTPTPHHNDDYKIHGSAYPGGETPAQQHEKLSYINTHNSNDNNNLMGSQARSNSQTPTASTIYEEAESQSSYLDDMFRTSQGGRPVTQNSISSIGQGPLRSSYSMAYDSPVDRAMNTPLQQQEGLKAELPHDFLFQHGTDDTMYNLTDDLSSSLSSSINSDMMTPNTYSSSFSYNPQSLGPASVSSTYSPKVRSPSSSFRAGSFLSSSFRHGSINTPRTRHTSISSNMTENIGPGSVPKILGGLTSDEKLRRKREFHNAVERRRRELIKQKIKELGQLVPPSLLNYDDLGKQIKPNKGIILDRTVEYLQYLAEILEIQARKKKALLAKIKELEEKKSSVAALSPFTNNHHASSGQNNSENSEERIIDIRSVPNALMNEQNSKAELHNWEPPLYDSVGNHNHAGTMESHPHTNIHEELKEFLSGDLIEAEDNAKLMFGDDNSNPADYLLEFGSG
- binding: binds
